Results from article doi:10.1101/2020.06.06.138008.
Results are given in words; binding and its absence hold for the method and conditions named. Some entries that bind do so weakly or less than the wild type. Tags and fused reporters may be left off the sequences shown.

T1: MlaF K47R, hexa-histidine tagged (subunit of MlaF_(K47R)EDB) (UniProt P63386)
T1 sequence: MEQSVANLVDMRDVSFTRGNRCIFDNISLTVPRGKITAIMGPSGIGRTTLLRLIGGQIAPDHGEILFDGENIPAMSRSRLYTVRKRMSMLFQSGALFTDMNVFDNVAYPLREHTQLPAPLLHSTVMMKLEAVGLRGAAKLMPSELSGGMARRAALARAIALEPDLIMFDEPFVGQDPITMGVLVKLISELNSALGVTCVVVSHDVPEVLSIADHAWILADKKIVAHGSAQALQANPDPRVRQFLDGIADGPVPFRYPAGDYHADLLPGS

T2: MlaF, hexa-histidine tagged (subunit of MlaFEDB) (UniProt P63386)
T2 sequence: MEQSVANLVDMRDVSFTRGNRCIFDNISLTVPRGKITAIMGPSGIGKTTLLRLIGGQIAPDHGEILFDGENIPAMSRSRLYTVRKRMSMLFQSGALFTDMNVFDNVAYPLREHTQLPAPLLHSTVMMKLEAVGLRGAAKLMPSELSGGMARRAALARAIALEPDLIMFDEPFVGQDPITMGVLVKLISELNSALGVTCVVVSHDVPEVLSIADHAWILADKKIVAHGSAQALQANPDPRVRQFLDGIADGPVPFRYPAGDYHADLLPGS


Tests used:
[1] = biological target: T1, MlaF K47R, hexa-histidine tagged (subunit of MlaF_(K47R)EDB); test: SEC
[2] = biological target: T2, MlaF, hexa-histidine tagged (subunit of MlaFEDB); test: SEC

| binding [1] | binding [2] | Binder |
| --- | --- | --- |
| binds | binds | MlaE (subunit of MlaFEDB) (protein, UniProt P64606 1-260) MLLNALASLGHKGIKTLRTFGRAGLMLFNALVGKPEFRKHAPLLVRQLYNVGVLSMLIIVVSGVFIGMVLGLQGYLVLTTYSAETSLGMLVALSLLRELGPVVAALLFAGRAGSALTAEIGLMRATEQLSSMEMMAVDPLRRVISPRFWAGVISLPLLTVIFVAVGIWGGSLVGVSWKGIDSGFFWSAMQNAVDWRMDLVNCLIKSVVFAITVTWISLFNGYDAIPTSAGISRATTRTVVHSSLAVLGLDFVLTALMFGN |
| binds | binds | MlaD (subunit of MlaFEDB) (protein, UniProt P64604 1-183) MQTKKNEIWVGIFLLAALLAALFVCLKAANVTSIRTEPTYTLYATFDNIGGLKARSPVSIGGVVVGRVADITLDPKTYLPRVTLEIEQRYNHIPDTSSLSIRTSGLLGEQYLALNVGFEDPELGTAILKDGDTIQDTKSAMVLEDLIGQFLYGSKGDDNKNSGDAPAAAPGNNETTEPVGTTK |
